Experimental findings from PubChem BioAssay AID1508600 (Functional Genomics Laboratory (NCATS/FGL), 2020) are described below.

Screen size: about 53,000 sequences; about 3,700 (7%) were called active.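 The calls were made as follows: active = gene knockdowns whose robust z-score for IL-1 alpha signal is at least 2 or at most -2, so actives lie on both sides; inactive = the rest.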 The list shows a part of the results.

This assay in a line: Components of the Cytosolic LPS Sensing Pathway: Gene Identification via Genome-wide siRNA Screen.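 Also: robust z of the log signal after scaling to non-targeting control siRNA wells of the plate.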 The settings on record: RAW264.7 macrophages, IL-1a HTRF, actives lie on both sides, screened at 100 nM (by protocol), cells primed 5 h with Pam3CSK4 first. The procedure, abridged:
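Supernatant IL-1a by HTRF from RAW264.7 cells primed with Pam3CSK4 (5 hours) and transfected with LipidA (24 hour) after 48h siRNA knockdown at 100 nM; cell viability checked with CellTiter-Glo.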
In general terms: TR-FRET usually uses a lanthanide donor and a delayed reading to cut background.
As for GCCUCCAUAAUUGUCAAUATT against Rbks, the z-score is inactive: -0.563.

As to CCAGAUGGUCUAUAUCGUATT against Plscr4, the z-score was inactive: -1.5.

Turning to GUACACUCAAUCACUCUUGTT against Rexo5, the z-score is inactive: 0.966. As for CCUGUGAAAGAUGCUUAUATT against Capn7, the z-score is inactive: -1.65. For the sequence “GCGAGCAUGAAGUUAGUAATT against C230029F24Rik”, the z-score was inactive: 0.914. The same measure for CGUGACGUAUCUGUGGUCATT against St8sia4: inactive: 0.424. The same measure for GGCAGAACACAGUUCGAUCTT against Tbcb: inactive: 0.165. For “GCUUAAUCGAACCAGAGUGTT against 2610524H06Rik”, the z-score is inactive: -1.24. Regarding GAGGUCAUUCCACGACGGUTT against Prpmp5, the z-score was inactive: 0.391. As for CCAUCAGGUUUAAGUCGUATT against Vps36, the z-score is inactive: -0.698. With CGCAUUACAAUUCAUCAUCTT against Rnf170, the z-score was inactive: 0.827.

GGCUGCAUCUAUAACAUAATT against Olfr611: the z-score was inactive: -0.767. The same measure for GGUGAAGCUGCUGAGAAAGTT against Angptl1: inactive: 0.0726; for CCAAGUAACAGUUUAGUAGTT against Nme5: inactive: 0.358; for GGUCCUAGAGAAUCUCCAGTT against Tst: inactive: -2. In the case of GGGCCUUUAAAGUAGUUGATT against Gm5115, the z-score is inactive: 0.513. GGUGACUGAAAUCAAACACTT against Il9r: the z-score was inactive: -1.71.

For GGUUUUACAGAACAUGGUATT against Tox4, the z-score is inactive: -1.24. Under CCUUAAAAGUAACCACUGUTT against Slc6a6 stands active: 2.38; under GCUGGAGACUACUACGUGCTT against Bex2, inactive: 1.93; under CCAUGACACUCAUUCCCAGTT against Tbc1d7, active: -2.64. GGCAUUUCAUGUAGCUAAATT against Spata18: the z-score was active: 2.04.

In the case of “GUCACCUAGCCUUUGUUGATT against Olfr1038-ps”, the z-score is inactive: -0.0572. Take GGAUAUUUGGAGGACAACCTT against C1s1: the z-score was inactive: 0.0678. As to GCCCAAAUUGGGUUCAUCATT against Pde9a, the z-score is inactive: 0.394. Under “GGCUUUCGUGUUUUCAGUUTT against 4921524J17Rik” stands inactive: 0.159. GGCCAAAAAUUUCAUCUCUTT against Itgae: the z-score was inactive: 1.06. The same measure for GCACCUGAAGACUAAUGUUTT against Gcnt2: inactive: 0.509; for GGUCUUUCAGAAAGUAGAUTT against Zbtb46: inactive: -0.0458.

In the case of GGUUGAUGAAGCUAAUUUATT against Ube2l3, the z-score was inactive: 0.206. The same measure for GGAGUUUUGAAUAAACCAATT against Tmc7: inactive: -0.2; for CGACUUCGUCAUAAGAAUATT against Map3k6: inactive: 0.299. For CGAGAUUGUGGAUAGCUUUTT against Eif4a1, the z-score was inactive: 0.284. With GGACUUGAAGUAAAGUAUATT against Megf9, the z-score is inactive: 0.156. Under GGAACAACCACGGAACCCATT against Il1r2 stands inactive: 0.335; under GCGCACCGUCAAAGUGAAATT against Atp5o, inactive: 0.906; under GCUCGUUCGCCUAGAAUUGTT against Mycbp, inactive: 0.529. Turning to GGUACACAUGACAUUCAUGTT against Gcdh, the z-score was inactive: 0.553. On to GGACUUUUCAUUUGAAGCATT against Gar1, for which the z-score was inactive: 1.03. With GGAGUCAUGCUCAUUUUGCTT against Skint2, the z-score is inactive: 0.762. For GGUAAUGUCCUUAUCAUCUTT against Olfr211, the z-score is inactive: -1.42. With GGACAAUUGUGACCUCAGATT against Tmem82, the z-score was inactive: -0.321. Under GGAGAUUGAUUUCAAUGCCTT against Olfr665 stands inactive: 0.203; under GGUAAGGUUACAGCACUGATT against Chac2, inactive: -0.489; under GGUGAUUUGUAAGACAGCUTT against Dpyd, inactive: -0.626. For the sequence GGCUGUGAGAACGAUGCAATT against Fam151a, the z-score is inactive: -1.08. Under GCCUUAGGUUCGGAUGACCTT against Rorb stands inactive: -0.961.

With GCGGUAACAUCACCAAAAUTT against Gltp, the z-score was inactive: -1.63. The same measure for GCUUUGUUGCGUCAACAAATT against Sdccag8: inactive: -0.504; for GGACAAGUUAGAGGAAUUUTT against Phf13: inactive: 1.96. The same measure for GGGUUUUUGGGAGAGCCAATT against Tbxas1: inactive: -1.48. As to GGCUAUUGCUGACCUCAGATT against Pidd1, the z-score is active: -2.73.

Take GGUCUACAAUGUGCGCACUTT against Trmt61a: the z-score was inactive: 0.386.

On to GGUUACGAAUUACCUAGACTT against Plat, for which the z-score was inactive: 0.0523.

GGUGGAAGUGAAGAAGCGATT against Depdc7: the z-score is inactive: -0.838.

Turning to GGACUGACUGGAUUUUUCCTT against Adamts12, the z-score was inactive: -0.102. Under “GGACUCAACUGGACAGCCUTT against E330037G11Rik” stands inactive: -0.556. The same measure for GGCCUUUCUAAAUUCAACATT against Top3a: inactive: -1.16; for CGAGGAAUAACAACAGCCUTT against Itk: inactive: -0.977. Take GGGAGCAACAAUGUAAACATT against Pex13: the z-score was inactive: 1.04. The same measure for GGAAAACUUACCUUCUUAATT against Zfp157: inactive: -0.143; for GGCUGAUUCAUUUGGGAACTT against Olfr9: inactive: 0.805. Regarding GGAUUAUUCCCAGUAUGAGTT against Krt23, the z-score was inactive: 0.125.

Regarding GGUGUUAACAAAAUGUACCTT against Phyh, the z-score is active: 2.54. The same measure for CCUGAAUUGUUCCUUCCAUTT against Zfp771: inactive: 0.482. For UCUGUAAACCCUUACGAUATT against Olfr1206, the z-score is inactive: 0.452. Take CCUUGUUACACAGUUUAAATT against Aqp4: the z-score is inactive: 1.91.

In the case of GGUGGUUGAAGAAAUGGCUTT against Timm8a1, the z-score was inactive: -0.364. For GGAUGUGAUUGAUAUUGAATT against Cul7, the z-score is inactive: 1.63. Regarding GGGCCUCAUCUUUGUGGUATT against Arf5, the z-score is inactive: 0.359. The same measure for GGAGUUGGGUCAUCUUCGATT against Ccdc61: inactive: 0.0739; for GGAUCUAGGAGCUGAUUAUTT against Mecr: inactive: -1.18. In the case of GGUGGAGGCAGGAAAAUCUTT against Mrpl57, the z-score is inactive: -0.808. As to GUGAAACCUACAAAAAGCCTT against Ms4a4c, the z-score was inactive: 1.25.

Consider GCAGAGAGGAUAACUGACCTT against Slc25a44, for which the z-score is inactive: -0.723. Under GGACGUAAUACCUGAGGAUTT against Caps2 stands inactive: -1.35; under GGACAAGAAGGCAAAUUAGTT against Arhgap9, inactive: 0.366. For GCAUCUAAGAAGCUGAAAATT against Apip, the z-score was inactive: 0.538. Under GGGUUUCACAGGCAAACAGTT against Suclg1 stands inactive: -0.904; under GGACUGAAACUCGAAGCUATT against Pou4f2, inactive: -0.603; under GCUCAUCACCUAUGCAGGCTT against Olfr371, inactive: 0.634. Take CGGAUGUGCCAUCCAUCAGTT against Tespa1: the z-score is inactive: -0.135. Turning to CGUCUAAAAGCUAAAGAAUTT against Serpinb1b, the z-score was inactive: -0.252.

GGAAAAACCUUGCUGGAACTT against Atp2a2: the z-score was inactive: 0.147. For the sequence UGAUAGUCUCCACUAAAUUTT against Gm4884, the z-score is inactive: -0.265. As to GCAAGAGUUAGUCUAAUGUTT against Pcid2, the z-score is inactive: -0.241. The same measure for GCUGGUCGAUCAGAAAUGCTT against Cfi: inactive: 0.463. Under GGUGUGGUCAUUCCAAAUGTT against Ms4a8a stands inactive: 0.042. As to GGUAUCCUGAUUGUUGAGUTT against Fam228a, the z-score was inactive: 1.18. For GGUGAUGCGAUCUUCUUUATT against Anxa10, the z-score is inactive: 1.76.

With ACCUCCAGUCGCAUAGAAGTT against Platr25, the z-score is inactive: -1.64. Under GGAGUUUGAGGAUGAAGACTT against Mapk8ip1 stands inactive: -0.892. The same measure for GGACAUUCUUCAGAACUGGTT against Ogfr: inactive: -0.865. On to GGAGAACACAGUACAGAUGTT against Zfp398, for which the z-score is inactive: 0.676. The same measure for GGCAACGAGUCAAGUGUGUTT against Ascl3: inactive: -0.589.

As to GGAUGGAACUUACAACUGGTT against Sirpb1a, the z-score is inactive: 1.16.

As for GCAGAUUUUAGCUCCUCGATT against Sybu, the z-score was inactive: -1.89. The same measure for GGGCAAAAAUAGGAAGAACTT against Armcx2: inactive: 0.849.

Consider GCAAAACUUGACUACCGCCTT against Bzw1, for which the z-score was active: 2.08. Under GCAAGACCGAAGUCACGGATT against Krt19 stands active: 2.87; under GCAUAUGAUGCCUUCCUUCTT against Strbp, inactive: -1.47.

Turning to GGAGUUAAAAUCACUCAUCTT against Irgm1, the z-score was inactive: 1.33.

For the sequence GGAAAUUUCUUAGCACGAATT against Ppp4r1, the z-score was inactive: -0.865.

For GCACUUAAGACCAAGCCUCTT against Osr1, the z-score was inactive: 1.28. Under GGAAGAGAUGGAAUUAUUGTT against Sh3bp5 stands inactive: -0.309; under GGACUCAUUUUCUUGAUGGTT against Mre11a, inactive: -1.75. The same measure for CGACAAGGGUUUUUAUUCUTT against Smcr8: inactive: -0.414.
